Results from PubChem BioAssay AID504467 (National Center for Advancing Translational Sciences (NCATS), 2011).
In all, about 330,000 compounds went through this assay and about 7,700 (2.3%) were called active. Inconclusive means that the source gave no clear call. Such entries were picked first, then a sample of the others. The call rests on the fitted dose curve; in most records, active means well fitted inhibition curve with a large enough effect; inconclusive means small, poorly fitted or top-dose-only effect, or effect the other way; inactive means flat fitted curve, though single readings scatter. A potency beside an inconclusive call is a rough fit, not a confirmed value.

Experiment: qHTS screen for small molecules that inhibit ELG1-dependent DNA repair in human embryonic kidney (HEK293T) cells expressing luciferase-tagged ELG1; further: nearly all actives have a fitted effect of over 55% in size
Conditions: HEK293T ELG1-luciferase reporter, luminescence, 16 h, DNA damage induced by 5-fluorouridine; activity change, negative = inhibition: at 46.1 µM (top of the series)
Method in brief: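 Luminescence from the luciferase reporter, measured 30 min after ONE-Glo reagent at room temperature, was the read-out. Beforehand, 2,000 cells per well were exposed for 16 hr at 37 °C to 5-fluorouridine together with compound or vehicle.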
On the % scale 0 is the no-effect control and ±100 the full control effect; potency means the concentration at half of the fitted maximal effect.

| Compound | Potency | activity change, negative = inhibition |
| --- | --- | --- |
| CC1(C)CC(=O)C=C(c2ccc(-c3ccccc3)cc2)C1 | inconclusive: 2.59 µM [activator, full curve] |  |
| CCOc1ccc2nc(N3CCCC(C(=O)NCCCN4CC(C)CC(C)C4)C3)sc2c1 (stereo not given) | inconclusive: 14.6 µM [activator, partial curve, poor fit] |  |
| COc1cc2c(cc1OC)C(c1cc3cc(C)ccc3[nH]c1=O)N(C(=O)c1ccco1)CC2 (stereo not given) | inconclusive: 16.4 µM [activator, partial curve, poor fit] |  |
| O=C(NCc1ccccn1)c1ccc(Cn2c(=S)[nH]c3ccc(Br)cc3c2=O)cc1 |  | inactive: -1.25% |
| O=C(NCCCN1CCCC1=O)c1cccc(S(=O)(=O)N2CCN(c3ccc(F)cc3)CC2)c1 | inconclusive: 18.3 µM [inhibitor, partial curve, poor fit] |  |
| Cn1c(=O)c(=O)n(C)c2cc(S(=O)(=O)N3CCCC3C(=O)Nc3ccc(F)cc3)ccc21 (stereo not given) | inconclusive: 16.4 µM [activator, single point] |  |
| c1cncc(-c2csc(NCc3ccco3)n2)c1 | inconclusive: 2.06 µM [activator, full curve, poor fit] |  |
| O=C(CSc1ccccc1Cl)c1ccco1 | inconclusive: 23.1 µM [activator, single point] |  |
| COc1ccc(F)cc1S(=O)(=O)n1nnc2ccccc21 | inconclusive: 20.6 µM [inhibitor, single point] |  |
| Cc1ccc(NC(=O)CSc2ccc(-c3ccccn3)nn2)cc1F | inconclusive: 7.3 µM [inhibitor, partial curve, poor fit] |  |
| Cc1ccc([N+](=O)[O-])cc1N=Nc1c(C)[nH]n(C(N)=S)c1=O |  | inactive: -2.28% |
| CC(C)OCCCn1c(-c2ccco2)nc2nc3ccccc3nc21 | inconclusive: 29.1 µM [inhibitor, single point] |  |
| CCNc1nc(N)nc(Oc2ccc(C(=O)OC)cc2)n1 | inconclusive: 5.8 µM [activator, single point] |  |
| O=S(=O)(Nc1cccc(-c2ccc3nncn3n2)c1)c1cccc(F)c1 |  | inactive: 14.1% |
| COc1cc(/C=C2\C(=N)N3N=C(S(C)(=O)=O)SC3=NC2=O)ccc1OC(=O)c1ccco1 |  | inactive: -1.14% |
| CCCCCCc1cc2cc(-c3nnc(-c4ccccc4O)o3)c(=O)oc2cc1O | inconclusive: 6.51 µM [inhibitor, single point] |  |
| O=C(N/N=C/c1ccccn1)c1cc(-c2ccncc2)nc2ccccc12 | inconclusive: 2.91 µM [inhibitor, partial curve, poor fit] |  |
| C=CCNC(=O)CSc1nc2ccccc2c(=O)n1CCc1ccc(OC)c(OC)c1 | inconclusive: 32.6 µM [inhibitor, partial curve, poor fit] |  |
| CCN(c1ccccc1)c1ncnc2c1cnn2-c1ccccc1 | inconclusive: 4.61 µM [activator, full curve] |  |
| COc1ccc(-c2cc(C(F)(F)F)n3ncc(C(=O)NCC4CCCO4)c3n2)cc1OC (stereo not given) | active: 0.58 µM |  |

| Compound | Potency | activity change, negative = inhibition |
| --- | --- | --- |
| CS(=O)(=O)c1ccc(-c2sc3ccccc3c2C#CCCO)cc1 | inconclusive: 29.1 µM [inhibitor, single point] |  |
| NC(=O)CC(NC(=O)Cc1ccc(Br)cc1)c1ccc(N2CCN(c3ccccn3)CC2)c([N+](=O)[O-])c1 (stereo not given) | inconclusive: 8.2 µM [inhibitor, single point] |  |
| Cc1cccc(NC(=O)c2cc(Cl)nc3ccccc23)n1 | inconclusive: 1.3 µM [activator, partial curve, poor fit] |  |
| CCc1nc2ccc(C(=O)NCCc3ccco3)cc2nc1CC | inconclusive: 23.1 µM [activator, partial curve] |  |
| CCOC(=O)c1c(-c2ccccc2)csc1NC(=O)CSc1nc(C)cc(C)n1 | inconclusive: 18.4 µM [inhibitor, single point] |  |
| CC12COC3(C(=O)NCCc4ccccc4)CC1CCC32C (stereo not given) | inconclusive: 25.9 µM [activator, partial curve] |  |
| O=C1[C@@H]2Cc3c([nH]c4ccccc34)CN2C(=O)CN1CCCCCO |  | inactive: 11.7% |
| CCn1c(SCc2nc3ccccc3c(=O)[nH]2)nc2ccccc21 | inconclusive: 13 µM [inhibitor, partial curve] |  |
| CCC(=O)N1CCc2cc(Br)cc(S(=O)(=O)N3CCC(C(=O)NC(C)C)CC3)c21 | inconclusive: 25.9 µM [inhibitor, single point] |  |
| CC1CCCN(C(=O)C2COc3ccccc3O2)C1 (stereo not given) | inconclusive: 16.4 µM [activator, single point] |  |
| CCOc1ccc(C(=O)Nc2ccc(S(=O)(=O)N3CCN(C)CC3)cc2)cc1 | inconclusive: 35.5 µM [inhibitor, single point] |  |
| COc1ccc2c(c1)-c1nc(/N=C/c3ccccc3O)sc1CC2 | inconclusive: 16.4 µM [activator, single point] |  |
| Cc1ccc(NC(=O)CSc2nnc(CSc3nc(C)cc(C)n3)n2Cc2ccco2)c(C)c1 | inconclusive: 29.1 µM [inhibitor, single point] |  |
| O=C(CCCOc1ccccc1)Nc1cccc(S(=O)(=O)N2CCOCC2)c1 | inconclusive: 16.4 µM [inhibitor, partial curve, poor fit] |  |
| Cc1ccc2c(c1)NCC(C(=O)NC1CCC(C)CC1)O2 (stereo not given) | inconclusive: 18.4 µM [activator, partial curve] |  |
| COc1ccc(C(=S)N2CCOCC2)cc1OC(=O)c1ccc([N+](=O)[O-])cc1 |  | inactive: 7.23% |
| COc1ccc(-c2cc3nc(C)c(CCC(=O)N4CCN(c5ccccn5)CC4)c(C)n3n2)c(OC)c1 | inconclusive: 5.8 µM [inhibitor, full curve] |  |
| COc1ccc([C@H]2CC(=O)C=C(/C=C/c3ccc(C(F)(F)F)cc3)C2)cc1 | inconclusive: 0.0058 µM [activator, full curve, poor fit] |  |
| COc1cccc(-c2nc3n(n2)C(c2cccs2)C(C(=O)Nc2cccnc2)=C(C)N3)c1 (stereo not given) |  | inactive: -8.09% |
| O=C(Nc1ccc(C(=O)N2CCCC2)cc1)c1ccc2c(c1)OCO2 | inconclusive: 23.1 µM [activator, partial curve] |  |

By substructure: the compounds so far containing a CF3 group (2)

| Compound | Potency | activity change, negative = inhibition |
| --- | --- | --- |
| COc1ccc(-c2cc(C(F)(F)F)n3ncc(C(=O)NCC4CCCO4)c3n2)cc1OC (stereo not given) | active: 0.58 µM |  |
| COc1ccc([C@H]2CC(=O)C=C(/C=C/c3ccc(C(F)(F)F)cc3)C2)cc1 | inconclusive: 0.0058 µM [activator, full curve, poor fit] |  |
